Experimental data from patent publication US10047091B2, “Ionic liquid, lubricating agent, and magnetic recording medium” (Dexerials Corporation, priority 2012, dated 2018).

Test: tape durability test (friction, still, shuttle)
Conditions: for Still durability after heating: after heating test at 100° C. for 10 min
[1] = −5° C., time until output decreased by −3 dB

Compound | Still durability (40° C., 30% RH) [min] | Still durability after heating (40° C., 30% RH) [min] | Coefficient of friction after 100 times of shuttle runs (40° C., 90% RH) | Coefficient of friction after 100 times of shuttle runs (−5° C.) | Still durability after heating (−5° C.) [min] | Still durability [1] [min]
CCCCCCCCCCCCCCCCCCN.O=C(O)C(F)(F)C(F)(F)C(F)(F)C(F)(F)C(F)(F)C(F)(F)C(F)(F)F [Comparative ionic liquid 2, reference compound] | >60 | 16 | 0.25 | 0.21 | 12 | >60
CCCCCCCCN.O=S(=O)(O)C(F)(F)F [Comparative ionic liquid 4, reference compound] | 39 | – | 0.30 | 0.29 | – | 35
CC(C)CN.O=S(=O)(O)C(F)(F)F [Comparative ionic liquid 5, reference compound] | 25 | – | 0.41 | 0.36 | – | 15
CCCCCCCCCCCCCCCCCCN.O=C(O)C(F)(F)C(F)(F)C(F)(F)C(F)(F)C(F)(F)C(F)(F)C(F)(F)F [Comparative ionic liquid 6, reference compound] | >60 | 36 | 0.25 | 0.22 | 45 | >60
CCCCCCCCCCCCCCCCCCN.OCC(F)(F)C(F)(F)C(F)(F)C(F)(F)C(F)(F)C(F)(F)C(F)(F)F [Comparative ionic liquid 7, reference compound] | >60 | 16 | 0.26 | 0.23 | 12 | >60
C1CCC2=NCCCN2CC1.O=S(=O)(O)C(F)(F)C(F)(F)C(F)(F)C(F)(F)C(F)(F)C(F)(F)C(F)(F)C(F)(F)F [Comparative ionic liquid 8, DBU pentadecafluorooctane sulfonic acid salt, reference compound] | 16 | 8 | 0.49 | 0.45 | 14 | 18
C1CN=C2NCCCN2C1.O=S(=O)(O)C(F)(F)C(F)(F)C(F)(F)C(F)(F)C(F)(F)C(F)(F)C(F)(F)F [Comparative ionic liquid 9, TBD pentadecafluoro sulfonic acid salt, reference compound] | 14 | 10 | 0.55 | 0.5 | 12 | 16
CCCCCCCCCCCCCCN.O=S(=O)(O)C(F)(F)F [Ionic liquid 6] | >60 | – | 0.21 | 0.20 | – | >60
CCCCCCCCC=CCCCCCCCCN.O=S(=O)(O)C(F)(F)F [Ionic liquid 8] | >60 | – | 0.22 | 0.22 | – | >60
CCCCCCCCCCCCCCCCCCN.O=S(=O)(O)C(F)(F)C(F)(F)C(F)(F)C(F)(F)C(F)(F)C(F)(F)C(F)(F)C(F)(F)F [Ionic liquid 10] | >60 | >60 | 0.23 | 0.19 | >60 | >60
CCCCCCCCCCCCCCCC1CCCCN2CCCN=C12.O=S(=O)(O)C(F)(F)C(F)(F)C(F)(F)C(F)(F)C(F)(F)C(F)(F)C(F)(F)C(F)(F)F [Ionic liquid 11] | >60 | >60 | 0.23 | 0.2 | >60 | >60
CCCCCCCCCCCCCCCCCCN.O=S(=O)(NS(=O)(=O)C(F)(F)C(F)(F)C(F)(F)C(F)(F)F)C(F)(F)C(F)(F)C(F)(F)C(F)(F)F [Ionic liquid 13, n-octadecylamine-bisnonafluorobutane sulfonylimide salt] | >60 | >60 | 0.22 | 0.2 | >60 | >60
CCCCCCCCCCCCCCCCCCN.O=S1(=O)NS(=O)(=O)C(F)(F)C(F)(F)C1(F)F [Ionic liquid 14, n-octadecylamine-cyclo-hexafluoropropane-1,3-bis(sulfonyl)imide salt] | >60 | >60 | 0.24 | 0.21 | >60 | >60
CCCCCCCCCCCCCCCCCCC1CCCCN2CCCN=C12.O=S(=O)(O)C(F)(F)C(F)(F)C(F)(F)C(F)(F)C(F)(F)C(F)(F)C(F)(F)C(F)(F)F (stereo not shown) [Ionic liquid 15, 6-n-octadecyl-1,8-diazabicyclo[5.4.0]-7-undecene (C18-DBU) pentadecafluorooctane sulfonic acid salt] | >60 | >60 | 0.26 | 0.22 | >60 | >60
CCCCCCCCCCCCCCCCCCC1CCCCN2CCCN=C12.O=S1(=O)NS(=O)(=O)C(F)(F)C(F)(F)C1(F)F (stereo not shown) [Ionic liquid 16, C18-DBU cyclo-hexafluoropropane-1,3-bis(sulfonyl)imide salt] | >60 | >60 | 0.26 | 0.23 | >60 | >60
CCCCCCCCCCCCCCCCCCN1CCCN2CCCN=C12.O=S(=O)(O)C(F)(F)C(F)(F)C(F)(F)C(F)(F)C(F)(F)C(F)(F)C(F)(F)C(F)(F)F [Ionic liquid 17, 7-n-octadecyl-1,5,7-triazabicyclo[4.4.0]-5-decene (C18-TBD) pentadecafluorooctane sulfonic acid salt] | >60 | >60 | 0.28 | 0.24 | >60 | >60
CCCCCCCCCCCCCCCCCCN1CCCN2CCCN=C12.O=S1(=O)NS(=O)(=O)C(F)(F)C(F)(F)C1(F)F [Ionic liquid 18, C18-TBD cyclo-hexafluoropropane-1,3-bis(sulfonyl)imide salt] | >60 | >60 | 0.27 | 0.23 | >60 | >60
